± gives the standard deviation. The entries are a selection whose mix differs from that of the whole data set. Many entries were measured with a wide error.
test system: MIWI (PIWIL1) piRISC loaded with Kctd7 piRNA (30 nt); test: pre-steady-state target cleavage rate (min^-1); MIWI and MILI are mouse PIWI proteins and EfPiwi is from a freshwater sponge; tags in brackets are library labels; higher = faster piRNA-guided slicing of the target; conditions: guide: Kctd7 piRNA 5'p-UGUUAAUCUCUCAGAGAAGGUGACAGUGAU; auxiliary factor: 500 nM mouse GTSF1
Protocol: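 Cleave-'n-Seq: a library of target RNAs (target site embedded in constant flanks, ACAGCATTCCGCGTTAGTGATATCCG... 5' flank; DNA-blocked outside the site) at 0.1 nM was incubated with 1 nM active mouse MILI or MIWI piRISC (synthetic 5'-monophosphorylated piRNA guide) with or without 500 nM mouse GTSF1 at 33 °C for 1 min to 16 h. Uncleaved targets were sequenced and normalised to non-target controls, and the pooled three trials were fitted to a burst-and-steady-state model to give the pre-steady-state cleavage rate (min^-1; k3 is constrained to at most 1e-4). Sequence is the target site only; target names encode pairing extent (gX:gY) and contiguous / 1-mismatch / 2-mismatch / bulge geometry. Fits with R² ≤ 0 are excluded.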

| Sequence | pre-steady-state target cleavage rate |
| --- | --- |
| UAGUGACAGUGCUUCUCUGAGUGAUUUACA | 0.000108 ± 0.022 |
| UAGUGACAGUGCUUCUCUGAGGAGAUUAACA | 0.000196 ± 0.015 |
| UAGUGACAGUGGACCUCUGAGAGAUUAACA | 0.000319 ± 0.012 |
| UAGUGACAGUGGAAGAGACAGAGAUUAUACA | 0.000229 ± 0.037 |
| UAGUGACUCACCUUCUCUGAGGAGAUUAACA | 0.00114 ± 0.0084 |
| UAGACUGUCACCUUCUCUGACAGAUUAUCA | 0.00246 ± 0.0026 |
| UAGUGACACACCUUCUCUGAUGAGAUUAACA | 0.0017 ± 0.0056 |
| UAGUGACAGUGCGUCUCUGAGAGAUUAACA | 0.000761 ± 0.0065 |
| AUCACUGUCACCUUCUCUGUCUCUAAUUGA [g12:g30:cont:t1A] | 0.00282 ± 0.0043 |
| UAGUGACAGACCUUCUCUGACUCAUUAACA | 0.00115 ± 0.01 |
| UAGUGACAGUGCUUCUCUGACACAUUAACA | 0.000202 ± 0.031 |
| UUGUCUGUCACCUUCUCUGAGAGAUUAACA | 0.691 ± 0.031 |
| UAGUCUGUCAGGUUCUCUGAGAGAUUAUGA | 0.000884 ± 0.0088 |
| AUCACUGUCACCUUCUCUGACUCUAAUUGA [g11:g30:cont:t1A] | 0.00199 ± 0.0044 |
| UAGUGACAGUGGAUCUCUGAGAGAUUAACU [g2:g17:cont:t1U] | 0.000707 ± 0.0096 |
| UAGUGACAGUGGAAGAGAGAGAGGAUUAACA | 0.000336 ± 0.02 |
| GUCACUGUCACCUUCUCUGAGAGAUUAACA | 0.763 ± 0.04 |
| UAGUGAGUCACCUUCUCUGAGUGAUAUUGA | 0.00101 ± 0.0082 |
| UAGUGACUGUGCUUCUCUGAGAGAUUAUGA | 0.000213 ± 0.019 |
| UAGUGACUCACCUUCUCUGACGAGAUUAACA | 0.00145 ± 0.0048 |
| UAGUGACAGUGGAAGAGUGACUCAUUAACA | 0.0005 ± 0.012 |
| UAGACUGUCACCUUCUCUGUCAGAUUAAGA | 0.000825 ± 0.0062 |
| UAGUGACAGACCUUCUCUGAGACUUUAACA | 0.000805 ± 0.009 |

2 records picked at random from those above, as already listed:

| Sequence | pre-steady-state target cleavage rate |
| --- | --- |
| UAGUGACUCACCUUCUCUGACGAGAUUAACA | 0.00145 ± 0.0048 |
| UUGUCUGUCACCUUCUCUGAGAGAUUAACA | 0.691 ± 0.031 |

Carrying on:

| Sequence | pre-steady-state target cleavage rate |
| --- | --- |
| UUCACUGUCACCUUCUCUCAGAGAUUUACA | 0.0958 ± 0.015 |
| UAGUGACAGUCCUUCCUCUGAGAGAUUAACA | 0.27 ± 0.027 |
| UAGUGAGACACCUACUCUGAGAGAUUAACA | 0.399 ± 0.03 |
| UAGUGACAGUGCUUCUCUGAGUGAUAAACA | 0.000128 ± 0.027 |
| UAGUGAGUCACCUUCUGAGAGAGAUUUUGA | 0.00231 ± 0.0062 |
| UAGUGUGUCACCUUGUCUGAGAGAUAUUGA | 0.00143 ± 0.0066 |
| UAGUGAGUCACCUUGAGUGAGAGAUUAAGA | 0.000965 ± 0.011 |
| UAGUGACUCACCUUCUCUGAAGAUUAACA | 0.000977 ± 0.0068 |
| AUCACUGUCACCUUCUCACUGAGAUUAAGA | 0.00276 ± 0.005 |
| UAGGCUGUCACCUUCUCUGAGAGAUUAACA | 0.803 ± 0.045 |
| UAGUGACAGUGGAAGAGACUCACAUUAACA | 0.000147 ± 0.02 |
| UAGACUGUCUCCUUCUCUGAGAGAUAUUGA | 0.00267 ± 0.0037 |
| UAGUGUGUCACCUUCAGAGAGAGAUUAUGA | 0.00188 ± 0.008 |
| UAGUCUGUCAGCUUCUCUGAGAGAUAUUGA | 0.00195 ± 0.0047 |
| UAGUCUGUCACCUUCUCUGAGACUAUAUGA | 0.000794 ± 0.0075 |
| UAGUGACAGUGGAACUCUGAGAGAUUAAA | 0.000156 ± 0.06 |
| UAGUGACAGUGGAAGAGAGAGCAGAUUAACA | 0.00229 ± 0.0038 |
| UAAACUGUCACCUUCUCUGAGAGAUUAACA | 0.677 ± 0.03 |
| UACACUGUCAGGAUCUCUGAGAGAUUUUGA | 0.000687 ± 0.009 |
| UAGUCUGUCACCUUCUCUGAGUGAUUAUCA | 0.015 ± 0.0044 |
| UAGUGACUCACCUUGACUGAGAGAUAUUGA | 0.000283 ± 0.034 |
| UAGACUGUGUCCUUCUCUGAGAGAUUUUGA | 0.0012 ± 0.0071 |

From the supplement of paper PMC10338343
